{"source": "paper PMC7940615", "about": "(Scientific Reports, 2021)", "experiment": "in vitro", "conditions": "African green monkey"}
{"compound": "CCC(CC)COC(=O)[C@H](C)N[P@](=O)(OC[C@H]1O[C@@](C#N)(c2ccc3c(N)ncnn23)[C@H](O)[C@@H]1O)Oc1ccccc1", "note": "[Remdesivir, remdesivir]", "values": [{"measurement": "CC50", "value": 17.6, "unit": "µM"}]}
